Measured values published in PMC10449902.
No constants are given. Whether binding was seen depends on the method and setting. Binding seen in cells or lysates may run through a third protein. Some results given as binding are weak or reduced against the parent protein; the word gives no strength.

Amino acid sequences for entries named in this document (tags omitted).
UniProt Q9HWE5: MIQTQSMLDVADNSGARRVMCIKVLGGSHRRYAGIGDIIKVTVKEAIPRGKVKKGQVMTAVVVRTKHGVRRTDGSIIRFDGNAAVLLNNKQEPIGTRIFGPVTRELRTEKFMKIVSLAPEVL
UniProt Q02SH2: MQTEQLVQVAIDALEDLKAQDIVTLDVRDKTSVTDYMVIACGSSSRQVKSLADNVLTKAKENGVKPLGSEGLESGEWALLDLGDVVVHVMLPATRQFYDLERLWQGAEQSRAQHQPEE

Molecular target: rplN (Pseudomonas aeruginosa (endogenous in strain PAO1)) (UniProt Q9HWE5)
Assay: cross-linking; XL-MS: pooled SEC fractions F33–F38 (70S ribosome peak) of ϕKZ-infected PAO1 lysate, cross-linked 1 h at RT with 5 mM DSSO; link FDR 5%

## ribosome silencing factor rsfS (from UniProt Q02SH2 1-118)
  binding: binds
